Reference: PubChem BioAssay AID493246 (Drosophila RNAi Screening Center, 2011)
The screen tested about 21,000 reagents; below is a random part of those with a known target gene and a result. In the full data, 429 (2%) are marked active. 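Values are raw and not normalised between plates; calls rest on per-plate z-scores that were not deposited.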 Reagents against one gene are numbered here. No sequences are given here. The record does not give: the amount of reagent, the time to read-out.

Aim: 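Identify essential fly genes by loss of cell viability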 (primary screen)
System: Drosophila Kc and S2R+ cells
Reagents: long dsRNA against Drosophila genes
Read-out: 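Cell number per well after knock-down, printed as raw plate values; calls were based on per-plate z-scores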
Direction: Kc cell number and S2R+ cell number: higher = more cells remaining
Rule for the call: 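Active when the per-plate z-score of cell number is 3 or more in the direction of fewer cells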

target gene | reagent | Kc cell number, rep 1 | Kc cell number, rep 2 | S2R+ cell number, rep 1 | S2R+ cell number, rep 2 | Call
eRF3 | 1 | 1.62e6 | 1.69e6 | 1.17e6 | 1.32e6 | inactive
CG42355 | 1 | 1.48e6 | 1.37e6 | 9.44e5 | 1.03e6 | inactive
Trpm | 1 | 1.21e6 | 1.19e6 | 8.66e5 | 7.76e5 | inactive
Rm62 | 1 | 1.21e6 | 1.29e6 | 8.82e5 | 9.58e5 | inactive
cN-IIIB | 1 | 1.31e6 | 1.43e6 | 1.17e6 | 1.21e6 | inactive
CG15020 | 1 | 1.67e6 | 1.64e6 | 1.11e6 | 1.19e6 | inactive
CG13040 | 1 | 1.47e6 | 1.71e6 | 1.36e6 | 1.54e6 | inactive
Cyp303a1 | 1 | 1.63e6 | 1.70e6 | 1.40e6 | 1.58e6 | inactive
Kah | 1 | 1.62e6 | 1.70e6 | 1.07e6 | 1.32e6 | inactive
Kah | 2 | 1.44e6 | 1.23e6 | 1.12e6 | 1.38e6 | inactive
CG9281 | 1 | 5.39e5 | – | 8.15e5 | – | inactive
Ten-m | 1 | 1.42e6 | 1.42e6 | 1.41e6 | 1.49e6 | inactive
Ten-m | 2 | 1.39e6 | 1.42e6 | 1.41e6 | 1.51e6 | inactive
RpL22-like | 1 | 1.61e6 | 1.66e6 | 1.24e6 | 1.41e6 | inactive
CG3618 | 1 | 1.57e6 | 1.63e6 | 1.27e6 | 1.35e6 | inactive
CG11018 | 1 | 1.21e6 | 1.38e6 | 1.15e6 | 1.16e6 | inactive
NPF | 1 | 1.57e6 | 1.56e6 | 1.12e6 | 1.28e6 | inactive
Wdr37 | 1 | 1.51e6 | 1.61e6 | 1.31e6 | 1.39e6 | inactive
CG14342 | 1 | 1.52e6 | 1.56e6 | 1.01e6 | 1.21e6 | inactive
aru | 1 | 1.49e6 | 1.54e6 | 1.00e6 | 1.23e6 | inactive
Or7a | 1 | 1.47e6 | 1.46e6 | 9.86e5 | 1.12e6 | inactive
Arl6IP1 | 1 | 1.45e6 | 1.43e6 | 1.09e6 | 1.20e6 | inactive
CG6293 | 1 | 1.56e6 | 1.58e6 | 1.34e6 | 1.42e6 | inactive
RpS3 | 1 | 8.00e5 | 9.19e5 | 7.47e5 | 8.54e5 | active
CG14355 | 1 | 1.77e6 | 1.87e6 | 1.45e6 | 1.46e6 | inactive
Aatf | 1 | 1.44e6 | 1.35e6 | 1.24e6 | 1.28e6 | inactive
cer | 1 | 1.53e6 | 1.56e6 | 1.14e6 | 1.24e6 | inactive
how | 1 | 1.09e6 | 1.06e6 | 9.33e5 | 1.03e6 | inactive
Oatp33Eb | 1 | 1.67e6 | 1.69e6 | 1.37e6 | 1.48e6 | inactive
CG14718 | 1 | 1.71e6 | 1.88e6 | 1.35e6 | 1.44e6 | inactive
Syt4 | 1 | 1.56e6 | 1.69e6 | 1.31e6 | 1.37e6 | inactive
CtsL4 | 1 | 1.51e6 | 1.60e6 | 1.16e6 | 1.31e6 | inactive
B9d1 | 1 | 1.52e6 | 1.52e6 | 1.15e6 | 1.33e6 | inactive
CG12091 | 1 | 1.53e6 | 1.35e6 | 1.00e6 | 1.25e6 | inactive
Snap24 | 1 | 1.68e6 | 1.83e6 | 1.38e6 | 1.49e6 | inactive
kek6 | 1 | 1.52e6 | 1.53e6 | 9.61e5 | 1.10e6 | inactive
CG14567 | 1 | 1.33e6 | 1.51e6 | 1.25e6 | 1.32e6 | inactive
Gprk1 | 1 | 1.35e6 | 1.44e6 | 1.11e6 | 1.06e6 | inactive
Gprk1 | 2 | 1.46e6 | 1.94e6 | 1.26e6 | 1.28e6 | inactive
CG9101 | 1 | 1.54e6 | 1.55e6 | 1.02e6 | 1.17e6 | inactive
CCT3 | 1 | 1.48e6 | 1.59e6 | 1.09e6 | 1.19e6 | inactive
CG11444 | 1 | 5.64e5 | – | 8.11e5 | – | inactive
msd5 | 1 | 1.42e6 | 1.34e6 | 9.41e5 | 1.12e6 | inactive
cno | 1 | 1.43e6 | 1.50e6 | 1.18e6 | 1.30e6 | inactive
cno | 2 | 1.08e6 | 1.13e6 | 4.90e5 | 6.04e5 | active
ova | 1 | 1.40e6 | 1.43e6 | 1.17e6 | 1.31e6 | inactive
Ork1 | 1 | 5.70e5 | – | 7.90e5 | – | inactive
CG11768 | 1 | 1.59e6 | 1.73e6 | 1.19e6 | 1.37e6 | inactive
mats | 1 | 1.48e6 | 1.48e6 | 1.12e6 | 1.25e6 | inactive
mats | 2 | 1.57e6 | 1.58e6 | 1.20e6 | 1.16e6 | inactive
CG7214 | 1 | 1.45e6 | 1.39e6 | 5.84e5 | 9.43e5 | inactive
lncRNA:bxd | 1 | 1.41e6 | 1.63e6 | 1.05e6 | 1.20e6 | inactive
se | 1 | 1.59e6 | 1.56e6 | 1.27e6 | 1.20e6 | inactive
CG16824 | 1 | 1.62e6 | 1.73e6 | 1.13e6 | 1.31e6 | inactive
CG6420 | 1 | 1.52e6 | 1.58e6 | 9.66e5 | 1.10e6 | inactive
Spn88Eb | 1 | 1.57e6 | 1.63e6 | 1.23e6 | 1.36e6 | inactive
CG6583 | 1 | 1.51e6 | 1.56e6 | 1.20e6 | 1.35e6 | inactive
CG13870 | 1 | 1.64e6 | 1.64e6 | 1.14e6 | 1.64e6 | inactive
Rpn13R | 1 | 1.53e6 | 1.57e6 | 1.12e6 | 1.34e6 | inactive

Records above whose target name starts with R or r:
target gene | reagent | Kc cell number, rep 1 | Kc cell number, rep 2 | S2R+ cell number, rep 1 | S2R+ cell number, rep 2 | Call
Rm62 | 1 | 1.21e6 | 1.29e6 | 8.82e5 | 9.58e5 | inactive
RpL22-like | 1 | 1.61e6 | 1.66e6 | 1.24e6 | 1.41e6 | inactive
RpS3 | 1 | 8.00e5 | 9.19e5 | 7.47e5 | 8.54e5 | active
Rpn13R | 1 | 1.53e6 | 1.57e6 | 1.12e6 | 1.34e6 | inactive
